{"source": "patent US4628089A", "about": "“Pyrido(2,3-D)pyrimidines” (Southern Research Institute, priority 1985, dated 1986)", "origin": "cited, not measured here", "system": "dihydrofolate reductase", "settings": "background; cited from earlier work", "note": "At least one structure is not confirmed: it was looked up by name or label, or the drawing left a doubt."}
{"smiles": "Nc1nc(N)c2nc(CNc3ccc(C(=O)N[C@@H](CCC(=O)O)C(=O)O)cc3)cnc2n1", "note": "[aminopterin]", "values": [{"measurement": "inhibition of dihydrofolate reductase", "value": "Powerful dihydrofolate reductase inhibitors"}]}
